Experimental findings from publication PMC7538584 are described below.

Chains of the proteins cited; added tags and fusions are not shown. Residues count along the entry.
UniProt P25799, residues 1-431: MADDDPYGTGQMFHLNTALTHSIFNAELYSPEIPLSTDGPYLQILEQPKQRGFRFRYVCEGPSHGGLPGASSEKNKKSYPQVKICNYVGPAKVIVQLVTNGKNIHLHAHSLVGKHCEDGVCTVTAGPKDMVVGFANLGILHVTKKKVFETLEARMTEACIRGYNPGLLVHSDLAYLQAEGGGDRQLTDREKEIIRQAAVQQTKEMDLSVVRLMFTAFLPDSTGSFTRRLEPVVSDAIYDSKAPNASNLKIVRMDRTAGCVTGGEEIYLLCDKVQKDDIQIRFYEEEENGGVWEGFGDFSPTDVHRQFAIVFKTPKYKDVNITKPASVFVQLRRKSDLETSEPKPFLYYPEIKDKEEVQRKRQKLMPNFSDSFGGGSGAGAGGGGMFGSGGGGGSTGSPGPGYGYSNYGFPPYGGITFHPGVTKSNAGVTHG

These are yes or no findings as the source states them, for the method shown. Binding seen in cells or lysates may run through a third protein. Some binding calls cover weakened binding; strength is not graded here.

Assay [1] addresses p50, endogenous mouse (mouse (endogenous in primary MEFs)) (UniProt P25799). Briefly: co-IP; WT MEFs expressing TopBP1^ER transfected with si-CHK1 and treated with TAM (4 h); IP with anti-p50, immunoblot.
The target is the same in assay [2]. Briefly: co-IP; endogenous proteins in primary WT MEFs, HeLa and MCF-7 cells; IP with anti-p50, immunoblot; cells untreated, treated with HU (2 mM, 4 h), with tamoxifen (4 h) in cells expressing TopBP1^ER or GFP^ER, or synchronized by double-thymidine block; knock-down of BRCA1 or BCL3 did not remove the association. In general terms: A western blot detects proteins with antibodies after separation by electrophoresis.

For assay [3] the target is unchanged. The assay is described as follows: condition: only lysate treated with lambda phosphatase; co-IP; endogenous proteins; lysate treated with lambda protein phosphatase prior to IP with anti-p50, IB with anti-Bard1.

B1: Bard1, endogenous mouse (protein, UniProt O70445 1-765)
chain: MPRRPPRVCSGNQPAPVPAMEPATDGLWAHSRAALARLEKLLRCSRCANILKEPVCLGGCEHIFCSGCISDCVGSGCPVCYTPAWILDLKINRQLDSMIQLSSKLQNLLHDNKDSKDNTSRASLFGDAERKKNSIKMWFSPRSKKVRYVVTKVSVQTQPQKAKDDKAQEASMYEFVSATPPVAVPKSAKTASRTSAKKHPKKSVAKINREENLRPETKDSRFDSKEELKEEKVVSCSQIPVMERPRVNGEIDLLASGSVVEPECSGSLTEVSLPLAEHIVSPDTVSKNEETPEKKVCVKDLRSGGSNGNRKGCHRPTTSTSDSCGSNIPSTSRGIGEPALLAENVVLVDCSSLPSGQLQVDVTLRRKSNASDDPLSLSPGTPPPLLNNSTHRQMMSSPSTVKLSSGMPARKRNHRGETLLHIASIKGDIPSVEYLLQNGNDPNVKDHAGWTPLHEACSHGHLKVVELLLQHNALVNTPGYQNDSPLHDAVKSGHIDIVKVLLSHGASRNAVNIFGVRPVDYTDNENIRSLLLLPEENESFSTSQCSIVNTGQRKNGPLVFIGSGLSSQQQKMLSKLETVLKAKKCMEFDSTVTHVIVPDEEAQSTLKCMLGILSGCWILKFDWVKACLDSKVREQEEKYEVPGGPQRSRLNREQLLPKLFDGCYFFLGGNFKHHPRDDLLKLIAAAGGKVLSRKPKPDSDVTQTINTVAYHAKPESDQRFCTQYIVYEDLFNCHPERVRQGKVWMAPSTWLISCIMAFELLPLDS
Take B1: the binding result in assay [1] was “no binding (condition: after knock-down of CHK1 (si-CHK1))”; in assay [2], “binds”; in assay [3], “no binding”.
